Article PMC5651841, “The Staphylococcus aureus extracellular matrix protein (Emp) has a fibrous structure and binds to different extracellular matrices” (Scientific Reports, 2017)
Results are given in words; binding and its absence hold for the method and conditions named.

Legend:
Assay in all cases: ELISA; matrix component (0.25 ug/well in 0.1 M Na2CO3, overnight 4 C) immobilised on polystyrene plates; Emp forms 0-1.5 uM added for 1 h at RT, PBST washes; detected with polyclonal anti-Emp IgG and AP-conjugated anti-rabbit IgG; KD from steady-state curves, one-site binding model; both purified
fibrinogen = biological target: fibrinogen
fibronectin = biological target: fibronectin
vitronectin = biological target: vitronectin

Measured: binding

B1: Emp1 (N-terminal fragment of Emp) (domain or fragment, UniProt Q2G012 26-116)
chain: ASVTESVDKKFVVPESGINKIIPAYDEFKNSPKVNVSNLTDNKNFVASEDKLNKIADSSAASKIVDKNFVVPESKLGNIVPEYKEINNRVN
no binding (tested: up to 1.5 uM): all assays above
